In patent US20210025901A1 (CALIFORNIA INSTITUTE OF TECHNOLOGY, published 2021):
No constants are given. Whether binding was seen depends on the method and setting. Some binding calls cover weakened binding; strength is not graded here. Where a sequence is shown, tags or fusion partners need not be part of it.

Columns and labels:
[1] = biological target: T1, Full-length His-tagged IL-17F protein (ab167911, Abcam) (human) (UniProt Q96PD4); test: sandwich ELISA: biotinylated ligand on NeutrAvidin plate, His-tagged IL-17F titrated up to 800 nM, anti-His-AP detection, fluorescence
T1 sequence: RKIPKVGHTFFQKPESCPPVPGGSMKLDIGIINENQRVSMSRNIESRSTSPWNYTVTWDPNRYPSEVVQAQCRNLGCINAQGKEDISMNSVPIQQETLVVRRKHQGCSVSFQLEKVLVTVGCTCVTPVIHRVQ

[2] = biological target: T2, Full-length His-tagged IL-17A protein (ab166882, Abcam) (human) (UniProt Q16552); test: point ELISA, His-IL-17A at 100 nM
T2 sequence: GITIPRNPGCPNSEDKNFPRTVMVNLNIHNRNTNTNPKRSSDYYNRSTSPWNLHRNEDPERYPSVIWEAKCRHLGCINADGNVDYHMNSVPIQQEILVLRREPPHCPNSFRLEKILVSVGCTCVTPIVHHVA

[3] = biological target: T2, Full-length His-tagged IL-17A protein (ab166882, Abcam) (human); test: point ELISA: ligand on NeutrAvidin plate, His-tagged protein at 100 nM, anti-His-AP detection, subtracted fluorescence
[4] = biological target: T1, Full-length His-tagged IL-17F protein (ab167911, Abcam) (human); test: as above
[5] = biological target: T1, Full-length His-tagged IL-17F protein (ab167911, Abcam) (human); test: point ELISA IL-17F vs IL-17A, FIG. 4B
[6] = biological target: T2, Full-length His-tagged IL-17A protein (ab166882, Abcam) (human); test: point ELISA, IL17F or IL17A at 100 nM, mean subtracted fluorescence; protocol not described for this panel
[7] = biological target: T1, Full-length His-tagged IL-17F protein (ab167911, Abcam) (human); test: as above

Measured: binding

KKGWP (Cy( ) = triazole cyclization via flanking Pra and Az4 residues; Biotin-PEG3) [Biotin-PEG3-Cy(KKGWP)(SEQ ID NO:23)]
not listed: [6] | [7]
binds: all other assays above

RSYNK (Cy( ) = triazole cyclization via flanking Pra and Az4 residues; Biotin-PEG3) [Biotin-PEG3-Cy(RSYNK)(SEQ ID NO:28)]
binds: all assays above
